# Laboratory results: PubChem BioAssay AID504744 (Drosophila RNAi Screening Center, 2011)
# Purpose: 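Identify dsRNAs that increase or decrease phospho-dAkt after insulin treatment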 (primary screen)
# Cells: Drosophila Kc167 cells
# Reagents: long dsRNA against Drosophila genes, 250 ng dsRNA per well of a 384-well plate
# Timing: 3 days of knock-down, then overnight serum-free starvation before stimulation
# Treatment: bovine insulin at 387 nM for 10 minutes after 12 h without serum
# Measured: 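Per-well phospho-dAkt level from an in-cell fluorescent antibody stain, divided by a DNA-dye signal; log2 residuals turned into z-scores that take cell number into account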
# Rule for the call: 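Hit in the insulin screen when the two-replicate mean z-score is more extreme than plus or minus 2.5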
# The screen tested about 23,000 reagents; below is an unselected part of those that have a named target and a result. Over the whole deposit, 98 (0.43%) got an active call. 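Only hit calls are given; the phospho-dAkt signals, z-scores and hit direction were not deposited.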 Names joined by + are all predicted targets of the reagent. No sequences are given here.
Gene,PubChem SID,activity call
Zip71B,SID104189478,inactive
SmydA-2,SID104190088,inactive
ND-PDSW,SID104180507,inactive
CG10950,SID104185812,inactive
CG42813 + CG42814,SID104195731,inactive
CG42813 + CG42814,SID104195732,inactive
e(y)2,SID104199432,inactive
ms(2)34Fe,SID104181697,inactive
SkpE,SID104199223,inactive
eEF2,SID104183529,inactive
Tace,SID104196132,inactive
Ac13E,SID104199117,inactive
Arpc2,SID104181905,inactive
Top2,SID104183251,inactive
CG3483,SID104184163,inactive
CG33235,SID104199433,inactive
CG42726 + CG42727,SID104194277,inactive
MstProx,SID104192250,inactive
MstProx,SID104192393,inactive
CG15393 (retired record),SID104180199,inactive
CG4374,SID104195362,inactive
Cyp4ac1,SID104183094,inactive
List,SID104186312,inactive

As entered above:
For “activity call”, CG4374 [SID104195362] reads inactive
List [SID104186312], activity call = inactive
Value for CG10950 [SID104185812] under “activity call”: inactive
MstProx [SID104192250], activity call → inactive
CG42813 + CG42814 [SID104195731], activity call: inactive
Under “activity call”, ms(2)34Fe [SID104181697] reads inactive

The list goes on:
Gene,PubChem SID,activity call
CG6674,SID104190484,inactive
Cdk12,SID104191628,inactive
MED24,SID104190736,inactive
ben,SID104200102,inactive
ben,SID104201053,inactive
CG4892,SID104181729,inactive
CG9483,SID104183018,inactive
CaMKII,SID104197006,inactive
Tbcb,SID104185859,inactive
Gem2,SID104189513,inactive
Nckx30C,SID104182478,inactive
Nckx30C,SID104182479,inactive
Nckx30C,SID104182480,inactive
Nckx30C,SID104182481,inactive
Tip60,SID104198453,inactive
Gyc32E,SID104180946,inactive
CG42717,SID104189203,inactive
Rcd1,SID104186908,inactive
CG42714,SID104188590,inactive
NFAT,SID104198783,inactive
NFAT,SID104199185,inactive
row,SID104186868,inactive
row,SID104186869,inactive
inaF-B,SID104198695,inactive
ap,SID104184709,inactive
Atpalpha,SID104193911,inactive
CG6443,SID104182750,inactive
TwdlR,SID104194528,inactive
CG10280,SID104191925,inactive
Dph3,SID104194715,inactive
Jon25Bi,SID104183226,inactive
shu,SID104184276,inactive
Ugt37A2,SID104195653,inactive
CG7512,SID104190655,inactive
pinta,SID104194490,inactive
sbb,SID104185515,inactive
sbb,SID104187468,inactive
Fen1,SID104187207,inactive
tau,SID104194361,inactive
SiaT,SID104184286,inactive
dgt3,SID104184141,inactive
